Measured values: PubChem BioAssay AID1347423 (Functional Genomics Laboratory (NCATS/FGL), 2020)
The whole screen tested about 52,000 sequences, of which about 210 (0.4%) were called active.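 How the source made its calls: active means gene whose silencing raises cell survival under the drug, median off-target-corrected z-score across its silencing RNAs 2 or more; inactive means the rest.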 The list shows a part of the results.

Assay: Resistance to Poly (ADP-Ribose) Polymerase inhibitor: Gene Identification via Genome-wide siRNA Screen
Settings: mouse BRCA2 R2336H ES cells, olaparib, CellTiter-Glo viability; active compounds read high
How it was run: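 Mouse BRCA2 R2336H ES cells were reverse-transfected with siRNA (20 nM final), treated at 48 h with 500 nM olaparib, and read by CellTiter-Glo after 72 h. Scores: MAD-based z per siRNA, median per gene, seed off-target correction.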

| Sequence | z-score |
| --- | --- |
| CCUGAUAAUGAAUAACUCGTT against Stard3nl | inactive: -0.0653 |
| GGCCUGGUAAAGUUAGUAATT against Wdr20 | inactive: -0.345 |
| CGAUGCAACUGGAAAACUCTT against Riok1 | inactive: -0.45 |
| GGGAAAGAUCCAGAACCAGTT against D4Wsu53e | inactive: 0.157 |
| GGAGAUCCGUUCAAGGGUUTT against Olfr557 | inactive: -0.789 |
| GGGCUACUUCCUGACUAAATT against Ube2s | inactive: -1.46 |
| CGUGAAAAAGUUAGCAAGUTT against 2610024N01Rik | inactive: 0.72 |
| GCCGGAUUGAGAUCUCUAUTT against 1500015L24Rik | inactive: -1.05 |
| CCUAAUCAACAACUUGGAGTT against Ugcg | inactive: 0.431 |
| GGAGACAUUCCAAAUGAGATT against 2810407K09Rik | inactive: -0.507 |
| GCCCAGUACUCCGCUUACATT against Bhlhb4 | inactive: -0.214 |
| GGACCAGUUAGUGAAGUGCTT against 0610033I05Rik | inactive: 1.51 |
| GGCAGUUAGACUGGUGUACTT against Foxa3 | inactive: 0.0935 |
| GGUCAUUCACAAGUCCUUUTT against Serpinb6b | inactive: -0.165 |
| GAUACAUCAACACACUGACTT against Ppy | inactive: 0.55 |
| GGUUCUUCAUACAAAUUACTT against Edg8 | inactive: 1.1 |
| CCUGUAUGGGCAUGAGUUUTT against Ttc8 | inactive: -0.533 |
| GCAUUUAACAAAGAUUUGGTT against 2810441O16Rik | inactive: -0.268 |
| CCAAAAGCAUAUCAGUCGGTT against Olfr1122 | inactive: -0.398 |
| GCUACAAUGACGCAGAGACTT against Kif5a | inactive: 0.344 |
| GGUUUUGGACCAGAUGAGCTT against Abi3 | inactive: 1.71 |
| GGAUAACAACGACAUUUCATT against Col6a1 | inactive: -0.615 |
| GAGAUGGAGCCUGGAAACUTT against Olfr480 | inactive: -2.16 |
| GGCUCAAGGCUGAGUUUCATT against En2 | inactive: 0.178 |
| GCCACUCACCUAGCAAAGATT against 2410025L10Rik | inactive: -0.431 |
| GCAAUCACUCUGCAGUGUCTT against Olfr1042 | inactive: 0.887 |

Rewritten tab-delimited: entries from further up.
Sequence	z-score
CGUGAAAAAGUUAGCAAGUTT against 2610024N01Rik	inactive: 0.72
GCCGGAUUGAGAUCUCUAUTT against 1500015L24Rik	inactive: -1.05
CCUAAUCAACAACUUGGAGTT against Ugcg	inactive: 0.431

(list continues)

| Sequence | z-score |
| --- | --- |
| GCAAACAUACGAUGUGAGGTT against 1700019N19Rik | inactive: 0.97 |
| GUCAAGAAUAUUAUGACCCTT against Vamp8 | inactive: 0.361 |
| GGUUUGUGACCAAUAAAACTT against Elk3 | inactive: -0.35 |
| GGAUUUCGACAGCAAACUCTT against Efhd2 | inactive: 1.71 |
| GGCCUUAAAAGGAAAACUATT against Sftpd | inactive: 0.542 |
| CGGCUUUCAAUCACAACGGTT against 9530020G05Rik | inactive: 0.912 |
| GGACAAGUACAGGUUCCUATT against Vrk3 | inactive: -1.3 |
| GCUAAUAGUCAUUAAACUGTT against Zfp2 | inactive: -0.337 |
| GGUCCAGAUAGACAUCCUGTT against Ralb | inactive: -0.682 |
| CGUAGUGAUCCUGUUCCAGTT against Lisch7 | inactive: -1.11 |
| GGUAGUUUAAAAUCUGUGATT against St6gal1 | inactive: 0.65 |
| GGGCCGAAAUGAAUGAACUTT against Inhba | inactive: -0.00136 |
| GGAAGAGACACUUUGUCUATT against 4930519G04Rik | inactive: -0.08 |
| GGUGCAGCCACGAAAACAUTT against Lmln | inactive: 1.57 |
| GGACCAACACACAACAUCCTT against 2310067G05Rik | inactive: 0.237 |
| GGGAUAUUCAUUGACUUUGTT against Arhgap8 | inactive: -1.64 |
| CCAAGUCCAGCCUUUUGGUTT against Bucs1 | inactive: 0.574 |
| CGACUAGAGUUGUGUGAUATT against Uqcrh | inactive: 0.614 |
| GGAUAAGGUAGAAUUACUGTT against Slc26a4 | inactive: -1.34 |
| GGAUGAUUCAUUCAGUGAUTT against Adcy9 | inactive: 0.0186 |
| GGGACAGAUACAGUUCAUGTT against Zan | inactive: -1.39 |
| CCAUAUUGAGGAAAAAUCCTT against 2810426N06Rik | inactive: -0.214 |
| CGGGAUAGACUAUAAGACUTT against Rab40c | inactive: 0.0159 |
| GGUUUUCACCAUGCAUCAGTT against 4933412H03Rik | inactive: 1.8 |
| GGGCUAAAGCCUUCAACACTT against Olfr923 | inactive: 0.197 |
| GCAGAAGAAACAGCUGUCUTT against 1110007F12Rik | inactive: 0.0357 |

Shown bar-delimited: part of the list above.
Sequence | z-score
GGAGACAUUCCAAAUGAGATT against 2810407K09Rik | inactive: -0.507
GCCCAGUACUCCGCUUACATT against Bhlhb4 | inactive: -0.214
GGACCAGUUAGUGAAGUGCTT against 0610033I05Rik | inactive: 1.51
GGCAGUUAGACUGGUGUACTT against Foxa3 | inactive: 0.0935
GGUCAUUCACAAGUCCUUUTT against Serpinb6b | inactive: -0.165
GAUACAUCAACACACUGACTT against Ppy | inactive: 0.55

Next entries follow.

| Sequence | z-score |
| --- | --- |
| GCUUGUGGUAAAUGAGGAGTT against 1700024G13Rik | inactive: 0.774 |
| CCUACGACCUGAAGAUAGCTT against 2600005O03Rik | inactive: -1.46 |
| GGGAAUCUCUGUAUGUUGUTT against Letm1 | inactive: 0.995 |
| GCAAGAAGUAUUUUCAGUATT against Galnt4 | inactive: -0.243 |
| GGAAACAGAGCAAGGAAAATT against Gas7 | inactive: -0.882 |
| GGAGACCAAAAAGAAAUAATT against Cmas | inactive: 0.448 |
| CGGAGGAAGGCAAGAUGUATT against Tead4 | inactive: -0.398 |
| CGAGCUUUCACUGCUACAGTT against Ppargc1b | inactive: 1.03 |
| GGAAUUAAAUGCCAGUACGTT against Ankfy1 | inactive: 0.511 |
| GGUAAUUUAAUGACACAUGTT against A130079P16Rik | inactive: 0.374 |
| GGAAAUUUCAUGAACCCUCTT against Aadat | inactive: 0.434 |
| GCCCAAGGUGAAUCUGUCATT against Tusc5 | inactive: -0.381 |
| GGUGAGGAACUUCUGGAAUTT against Klra5 | inactive: -0.161 |
| GCUAAGGACACAAAAUCCATT against 1810073N04Rik | inactive: 0.378 |
| GGACAUCAUUCAUGACCCUTT against Rpl8 | inactive: -3.05 |
| GGAGUUGGUACCUUUCCGATT against Thap4 | inactive: -0.883 |
| CGGAAUGAUCACGACCGAUTT against AI851076 | inactive: -0.772 |
| GGCUUCAAGGACUUUACAATT against Mefv | inactive: 0.895 |
| GGUUCUAUAGGGCUCCGAATT against 1810059G22Rik | inactive: 0.878 |
| GGAUUUCUGACCAUUGAGCTT against Mrgprf | inactive: 0.341 |
| GGUAAUUGCCAUAGAAAAUTT against 1600014E20Rik | inactive: -0.496 |
| GGAAAGAACAACAAAGGAGTT against Snx9 | inactive: 0.254 |
| GCCAUAACCGACUACGAGATT against 9530051K01Rik | inactive: 0.0604 |
| CCUUGAGAUUUUUAUAAGCTT against Stx5a | inactive: 1.82 |
| CCAGUCACUGACAAUAAGATT against Kcnj1 | inactive: 0.115 |
| CGACUAUAUGCAGAAGUACTT against Cdc27 | inactive: -2.97 |

| Sequence | z-score |
| --- | --- |
| GGUAAUAUAUGACUCCAGCTT against 2310042G06Rik | inactive: -0.65 |
| GCUCACUAUGUAAAGAGAATT against Itpk1 | inactive: -0.284 |
| GGUUUUCAAAGAUCUCUAGTT against Efnb2 | inactive: -0.183 |
| CCUGGGUUGGAUAAAACUUTT against 6030458C11Rik | inactive: -0.521 |
| GGACGAUGGAAUUAUGAGGTT against 4921524P20Rik | inactive: 0.102 |
| GGCAUGAUCAUAAUUGGAUTT against Mto1 | inactive: 0.63 |
| GGGCUUCAGUGAAGUUGUCTT against Cml3 | inactive: -2.3 |
| GGACAUAUUGGAAACAGAATT against 5033414D02Rik | inactive: 1.17 |
| GGAUUGUGGUUGAACACAUTT against Tmem33 | inactive: 0.924 |
| GGGUAUGGUGACAGAUAAATT against Cpz | inactive: -0.169 |
| GCUAGGAAUGCUGAACACUTT against Sh3gl3 | inactive: -1.01 |
| CGGUUGAAGAUUGAUUUUGTT against Gnai3 | inactive: 0.75 |
| GGUCCAUGCUCUCAUGAGUTT against 4933430F08Rik | inactive: 0.00145 |
| GGGAAUCGAGAAAAUGGAUTT against Prkg2 | inactive: 0.316 |
| GGAGAUGCCCAAUGUUUUCTT against Ehd1 | inactive: -0.27 |
| CCCAUCUCGAAUGAAAGCCTT against Clecsf1 | inactive: -0.646 |
| GCUUCCUCAAUUACUAUGCTT against Apbb2 | inactive: 0.176 |
| GGCUAAAGGAGAACAACAUTT against Bub3 | inactive: -0.585 |
| GCCUUGGCAUUAUAUAUGGTT against Prom1 | inactive: 0.663 |
| GGGCUUCGAUGCUAUCAUCTT against 6430573F11Rik | inactive: 0.734 |
| GCAUUGGCAUGAUGGACCATT against Slc39a1 | inactive: 1.02 |
| GCCACAUGCUUCAAUAGUGTT against Gluld1 | inactive: 0.506 |
| GCGCAAACAACACAUCGUCTT against Ccpg1 | inactive: -0.273 |
| CCUUCCAGUAGUAAUUCAUTT against Hod | inactive: 1.04 |
| GGUCGCUAUUAAGAUCAUUTT against Mark4 | inactive: -1.39 |
